According to PMC12040169 (PLOS Biology, 2025):
The list shows a part of the results.

tested on: T1, CTL2-GFP (C. trachomatis L2/434/Bu, GFP-expressing); parameters: species or system HeLa; Intracellular C. trachomatis growth in HeLa cells, bulk GFP fluorescence relative to DMSO; conditions: bulk GFP, single well; 28.5 h, 10 µM; inhibitor
T1 construct: L2/434/Bu, GFP-expressing

SMILES	% of control remaining [%]
Cc1ccc(-c2csc3ncnc(NCCCc4n[nH]c(N)c4C#N)c23)cc1 [CBK297100]	122.569
CC(OC(=O)c1ccc(O)cc1)C(=O)Nc1ccc(Cl)c(Cl)c1 (stereo not shown) [CBK264281]	94.1245
Cc1csc(Sc2nc3ccccc3nc2C(F)(F)F)n1 [CBK093775]	122.925
NC1=NNC2=C(c3ccc(F)cc3)NNN12 [CBK093659]	106.314
O=C(CN1CCOCC1)Nc1c2c(nc3ccccc13)N(c1ccccc1)CC2 [CBK111136G]	108.319
COc1ccc(Cl)cc1C(=O)O/N=C(\N)Cc1cccc2ccccc12 [CBK266275]	119.765
CCn1nc(C)c(-c2cncn2CCCOc2cccc(C)c2)c1C [CBK281997]	144.583
Cc1cc(-c2cn3ccnc3c(NC3CC3)n2)cc(C)c1O [CBK066747]	87.7036
CN1CCN(CCOC(=O)N2CCSCC2)CC1 [CBK200288]	109.851
O=C(O)c1cc(S(=O)(=O)Nc2ccc(F)cc2)c(Cl)cc1Cl [CBK113685]	107.468
CCN1CCN(C(=O)c2ccc3nc(-c4ccccc4)c(-c4ccccc4)nc3c2)CC1 [CBK269090]	149.273
O=C1Nc2ccc(-c3ccc4c(c3)OCO4)cc2C(=O)N2CCN(C(=O)CO)C[C@H]12 [CBK289593]	107.634
CCC1CCCCN1C(=O)c1ccc(C)c(Cl)c1 (stereo not shown) [CBK082756]	79.8484
O=C(NCc1ccc2c(c1)OCO2)N1CCCCC1CO (stereo not shown) [CBK156166]	113.453
Cc1cc(C(F)(F)F)nn1CCNC(=O)c1cn2ccsc2n1 [CBK307260]	94.9562
CC(=O)Nc1ccc(-c2cc(Nc3ccc(NC(=O)c4ccc(N)cc4)cc3)ncn2)cc1 [CBK091103]	118.817
COc1ccc(CCN(C(C)=O)C2CC(=O)N(c3ccccc3)C2=O)cc1OC (stereo not shown) [CBK262349]	123.6
O=C(NCc1ccc(Cl)cc1)C1CCCN1c1nc(O)cc(C(F)(F)F)n1 (stereo not shown) [CBK003706]	114.15
CC(C)Nc1cc(SCc2cccc(C(F)(F)F)c2)ncn1 [CBK107161]	110.114
CCOc1ccc(NC(c2ccccc2)c2cc3cc(OC)ccc3[nH]c2=O)cc1 (stereo not shown) [CBK286157]	104.489
O=C(O)c1ccc2c(c1)C(=O)N(Cc1cccc(CN3C(=O)c4ccc(C(=O)O)cc4C3=O)c1)C2=O [CBK265556]	101.7
CCn1nc(C)c(-c2cncn2CCCN2CCCCC2)c1C [CBK281769]	155.286
O=C(NC(c1cccnc1)c1ccc2c(c1)OCO2)C1CCN(CCc2cccs2)CC1 (stereo not shown) [CBK148503]	112.826
Cc1cc2ccccc2n2c(=O)n(CC(=O)N3CCCCC3)nc12 [CBK283878]	140.663
Cc1nn(Cc2ccccc2)c(C)c1CNC(=O)c1nc(Cl)ccc1Cl [CBK297928]	122.003
CCOc1nc(NCCC2=CCCCC2)nc(OCC)n1 [CBK027387]	110.419
CCCCN(C)c1c(C)nc2c(OCc3ccc(S(=O)(=O)N(C)C)cc3)cccn12 [CBK147189]	108.029

SMILES	% of control remaining [%]
CC(NS(=O)(=O)c1ccc(CCC(=O)N2CCN(C)CC2)cc1)c1ccccc1 (stereo not shown) [CBK266868]	152.637
NC(=O)CN1CCCN(c2ccnc(OCC3COc4ccccc4O3)n2)CC1 (stereo not shown) [CBK083236T]	106.846
COc1cccc(CNc2ccc(N3CCCCC3)cc2)c1OCc1cccs1 [CBK074531]	52.6596
O=C(NCc1ccncc1)c1csc2c(C(F)(F)F)cc(N3CCN(Cc4ccccc4)CC3)nc12 [CBK034294T]	98.1982
Cc1nc(O)cc(C2CCN(C(=O)c3csc4c3CCCC4)CC2)n1 [CBK307618]	99.6554
O[C@@H]1CN(Cc2ccc(F)c(F)c2)CC[C@H]1NC1CC1 [CBK283319]	119.618
C=CCOc1ccccc1OCCCN1CCN(C)CC1 [CBK269714C]	119.567
O=C(Nc1ccc(F)cc1)c1sccc1NS(=O)(=O)Cc1ccccc1 [CBK004574]	88.0316
Cc1ccc(S(=O)(=O)NC(C)C(=O)Nc2cc(C(F)(F)F)ccc2Cl)cc1 (stereo not shown) [CBK266546]	130.389
Cn1nccc1CN1CCCC(COc2ccc(F)cc2)C1 (stereo not shown) [CBK281899]	108.521
COCCN1CC(CNC(=O)c2cccc(F)c2O)CC1=O (stereo not shown) [CBK304386]	106.465
O=[N+]([O-])c1ccccc1S(=O)(=O)Nc1cc(C(F)(F)F)ccc1Cl [CBK015721]	104.698
S=C(NCCCN1CCOCC1)Nc1ccccc1Cl [CBK264599]	100
O=C(O)c1ccc(S(=O)(=O)N2CCOCC2)cc1 [CBK287201]	142.538
Cn1cc(CN2CCN(CC3(c4ccccc4)CC3)CC2)cn1 [CBK282794]	101.718
O=C(Nc1cccc2cccnc12)c1ccc([N+](=O)[O-])o1 [CBK268007]	78.5085
CC(=O)Nc1ccc(F)c(NC(=O)NCC2CCOC2)c1 (stereo not shown) [CBK304388]	115.847
CC(=O)Nc1ccc(-c2ccc(C(=O)NCc3ccc(OC(F)(F)F)cc3)cn2)cc1 [CBK158830]	117.073
CC(=O)c1ccc(-c2ccc(C(=O)N(C)CCN(C)C)c(N(C)C)n2)s1 [CBK106071]	127.972
Cc1nc(S(=O)(=O)N2CCC(C(=O)N3CCCCC3)CC2)cn1C [CBK305963]	93.6163
CC(C)c1ccc(/C=C/C(=O)NCc2ccccc2)cc1 [CBK149635]	105.236
OCCCN1CCC(Oc2cncc(OCCN3CCOCC3)n2)C1 (stereo not shown) [CBK084494]	105.969
CS(=O)(=O)N1C[C@@H]2CCCCN(Cc3cccc(F)c3F)[C@@H]2C1 [CBK285513]	108.559
COc1cc2c(cc1NC(=O)C/C(C)=N/NC(=O)c1ccccc1F)oc1ccccc12 [CBK262437]	100
CCOC(=O)C(Cc1ccccc1)NC(=O)c1ccc(C)nc1 (stereo not shown) [CBK305952]	142.692
COc1ccc2c(c1)C1(CC(=O)N(CC(=O)N(C)C)C1=O)C(=O)N2CC(=O)c1ccccc1 (stereo not shown) [CBK075913]	102.662
O=C(c1ccccc1Br)N1CCCCC1 [CBK028504]	101.569

Structures from the list above that have a furan ring, fused or not:
SMILES	% of control remaining [%]
O=C(Nc1cccc2cccnc12)c1ccc([N+](=O)[O-])o1 [CBK268007]	78.5085
COc1cc2c(cc1NC(=O)C/C(C)=N/NC(=O)c1ccccc1F)oc1ccccc12 [CBK262437]	100

An excerpt taken from the entries so far, for reference:
SMILES	% of control remaining [%]
S=C(NCCCN1CCOCC1)Nc1ccccc1Cl [CBK264599]	100
O=C(O)c1ccc(S(=O)(=O)N2CCOCC2)cc1 [CBK287201]	142.538

More structures follow:

SMILES	% of control remaining [%]
Cc1ccc(N(CC(=O)Nc2cccnc2)S(=O)(=O)c2ccc(F)cc2)cc1 [CBK263332]	102.587
CC(=O)c1ccc(-c2cnc(Nc3ccc(N4CCOCC4)cc3)c3nccn23)s1 [CBK091231]	191.323
O=C(NNC(=O)c1cc2ccccc2cc1O)Nc1cccc([N+](=O)[O-])c1 [CBK266882]	128.234
NS(=O)(=O)c1cc(C(=O)O)ccc1Cl [CBK113676]	181.985
Cc1nc(N2CCCCC2)ncc1C(=O)NCc1nonc1C [CBK307243]	102.884
Cn1nc(C2CCCN(C(=O)c3cccc(F)c3)C2)c2cccnc21 (stereo not shown) [CBK282155]	138.872
CC1C(=O)N(c2ccc(Cl)c(Cl)c2)C(=N)N1c1nc(N(C)C)nc(N(C)C)n1 (stereo not shown) [CBK263182]	134.804
CC(=O)N1CCCC(c2[nH]c3cccnc3c2CN(C)C)C1 (stereo not shown) [CBK283469]	120.823
O=C(Nc1cccc(-c2nnn[nH]2)c1)c1ccc(C2CCCCC2)cc1 [CBK296712]	122.882
O=C(c1ccc2ccccc2c1)N1CCC2(CC1)CN(Cc1ccccc1)CCO2 [CBK161118A]	119.537
CCn1c(SCC(=O)Nc2c(Cl)cc(Cl)cc2Cl)nnc1-c1ccccc1F [CBK268609]	108.893
O=C(Nc1ccc(F)cc1)c1[nH]c2ccccc2c1NS(=O)(=O)c1cc(Cl)sc1Cl [CBK050094]	44.4169
Cc1cccc(N2CCN(CCCOc3ccc(F)c(F)c3)CC2)n1 [CBK025158C]	125.175
CCCn1nnc(NC(=O)C(C)Oc2ccc(Cl)cc2Cl)n1 (stereo not shown) [CBK266772]	126.918
Cn1c(=O)oc2cc(S(=O)(=O)N3CCN(C4CCCCC4)CC3)ccc21 [CBK268865]	129.195
COc1ccc(CN2CCCN(S(=O)(=O)c3ccc(C(=O)c4ccccc4)cc3)CC2)cc1F [CBK062855]	136.093
COc1cc(C(=O)NCc2ccc(-c3csnn3)cc2)cc(OC)c1OC [CBK149308]	127.093
Brc1csc(CNc2ccc3cn[nH]c3c2)c1 [CBK021216]	122.721
Cc1onc(-c2ccccc2Cl)c1C(=O)Nc1ccc(CC(=O)O)cc1 [CBK269623]	159.758
CCCCCn1c(O)nnc1SCc1csc(CS(=O)(=O)c2ccc(Cl)cc2)n1 [CBK007176]	131.77
O=C(c1ccccc1)c1ccc2n1CCC2C(=O)Nc1ccccc1F (stereo not shown) [CBK300530]	160.261
COc1ccc(C(=O)Nc2nc3c(C)c(C)ccc3s2)cc1 [CBK291210]	98.9497
CC(=O)N1CCOc2ccccc21 [CBK050388]	119.382
Cn1cncc1CN1C[C@@H]2CCCN2C[C@@H]1Cc1ccccc1 [CBK283027]	138.427
Cc1ccc2nc(NC(=O)C(C)(C)C)nc(O)c2c1 [CBK021975]	157.43
